From patent US6713506B2, “Tea polyphenol esters and analogs thereof for cancer prevention and treatment” (University of South Florida, priority 2000, dated 2004)

Tested on: purified 20S proteasome
Assay: HPLC analysis of cleavage of tea polyphenols by purified 20S proteasome
Format: biochemical
[1] = ECG 0.5 mM, 12 h with 20S proteasome

Oc1cc(O)c2c(c1)O[C@H](c1cc(O)c(O)c(O)c1)[C@H](O)C2 [EGC, (−)-epigallocatechin]
degradation by the 20S proteasome (in words): degraded

O=C(O[C@@H]1Cc2c(O)cc(O)cc2O[C@@H]1c1cc(O)c(O)c(O)c1)c1cc(O)c(O)c(O)c1 [EGCG, (−)-epigallocatechin-3-gallate]
gallic acid-like peak, concentration as % of EGCG (2 h incubation): < 5% | decrease in the level of EGCG (2 h incubation with 20S proteasome): 40% | gallic acid-like peak, equivalent to % of EGCG (4 h incubation): 13% | disappearance of EGCG (4 h incubation with 20S proteasome): 80% | gallic acid-like product, level equivalent to % of EGCG (6 h or longer incubation): 20-25% | disappearance of EGCG (6 h or longer incubation with 20S proteasome): > 95%

(−)-epicatechin-3-gallate [ECG]
decrease in levels of ECG [1]: ~20% | increase in levels of both gallic acid-like and EC-like products [1]: 3-4%
